Measured values taken from patent US12564631B2, “Phytosphingosine derivatives as adjuvants in immune stimulation” (Helmholtz-Zentrum für Infektionsforschung GmbH, priority 2020, dated 2026).
Some results were stated once for a whole list of compounds, not compound by compound.

Tested on: splenocytes
Assay: Unspecific proliferation assay of splenocytes ([3H]thymidine incorporation)
Assay type: cell-based, mice
Settings: splenocytes restimulated 96 h with 1, 10 and 20 μg/ml compound; ratio of [3H]-thymidine uptake of stimulated versus non-stimulated samples; FIG. 2E/2F
Description: FIG. 2: Analysis of unspecific proliferative responses of murine cells stimulated without or with enhanced concentrations of the Phytosphingosine-compounds. Splenocytes from mice were re-stimulated for 96 h with different concentrations of adjuvant (1, 10 and 20 μg/ml). The results are presented by are expressed (A-C) as counts per minute (cpm) and (D-F) stimulation index (SI) being the ratio of [^3H]-thymidine uptake of stimulated versus non-stimulated samples. (A) and (D) show data for α-GalCer controls, (B) and (E) show data for IPB1901-1910, and (C) and (F) show data for IPB1911-1917.
In order to assess the properties of the inventive compounds in antigen-unspecific immune response stimulation the compounds were administered to splenocytes in an established proliferation assay.
For the proliferation assay, splenocytes (5×10^6 cells/ml) are seeded at 100 μl per well in a U-bottomed 96-well microtiter plate (Sarstedt Inc., Newton, N.C.) and cultured in quadruplicates 4 days in the presence of enhanced concentrations of adjuvant (1, 10 and 20 μg/ml)), 5 μg/ml of Concanavalin A (max); or medium alone. Eighteen hours before harvesting, 1 μCi of [3H]thymidine (Amersham International, Freiburg, Germany) is added to each well. Cells are harvested on paper filters (Filtermat A; Wallac, Freiburg, Germany) using a cell harvester (Inotech, Wohlen, Switzerland) and the incorporation of [3H] thymidine into the DNA of proliferating cells is determined using a scintillation counter (Wallac 1450, Micro-Trilux).

Row | SMILES | Stimulation index (SI)
1 | CCCCCCCCCCCCCC[C@@H](O)[C@@H](O)[C@H](CO[C@H]1OC(CO)[C@H](O)C(O)C1O)N(CC(=O)NCc1ccccc1)C(=O)CCCCCCC (stereo partly drawn) [IPB 1902] | > 3
2 | CCCCCCCCCCCCCCCCCCCCCCCC(=O)N(CC(=O)NCC(OC)OC)[C@@H](CO[C@H]1OC(CO)[C@H](O)C(O)C1O)[C@H](O)[C@H](O)CCCCCCCCCCCCCC (stereo partly drawn) [IPB 1911] | > 1.5
3 | CCCCCCCCCCCCCCNC(=O)CN(C(=O)[C@@H](Cc1ccccc1)NC(C)=O)[C@@H](CO[C@H]1OC(CO)[C@H](O)C(O)C1O)[C@H](O)[C@H](O)CCCCCCCCCCCCCC (stereo partly drawn) [IPB 1904] | > 3
